Results reported in article PMC9561960.
Results are given in words; binding and its absence hold for the method and conditions named. Binding seen in cells or lysates may run through a third protein. Some binding calls cover weakened binding; strength is not graded here. Where a sequence is shown, tags or fusion partners need not be part of it.

Target: SARS-CoV-2 NSP4 containing a Strep-II tag (SARS-CoV-2) (UniProt P0DTD1)
Experiment: co-IP

B1: BCL2 antagonist/killer (BAK) (protein, UniProt Q16611 1-211)
chain: MASGQGPGPPRQECGEPALPSASEEQVAQDTEEVFRSYVFYRHQQEQEAEGVAAPADPEMVTLPLQPSSTMGQVGRQLAIIGDDINRRYDSEFQTMLQHLQPTAENAYEYFTKIATSLFESGINWGRVVALLGFGYRLALHVYQHGLTGFLGQVTRFVVDFMLHHCIARWIAQRGGWVAALNLGNGPILNVLVVLGVVLLGQFVVRRFFKS
For B1, the binding was “binds”.
